# According to the supplement of paper PMC7024190:
# Structures can show the parent of a compound that is named as a salt. The list shows a part of the results. Single values are uncertain here, since repeats match poorly.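 The cells were human embryonic kidney cells carrying a Renilla luciferase gene, driven by the HSV-TK promoter, on a plasmid put in briefly by transfection. This is the first-round screen of about ten thousand compounds, looking for ones that raise reporter output.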
# System: HEK 293FT
# Assay: log relative Renilla luciferase luminescence (reporter expression vs reference, reference not stated) (log (base not stated)); higher = higher recombinant reporter expression
# Conditions: 10 µM; time after transfection 48 h
row,SMILES,log
1,O=C(O)CNC(=O)C(CS)Cc1ccccc1 (stereo not drawn) [Thiorphan],-0.0382
2,Cc1c(OCC(F)(F)F)ccnc1C[S+]([O-])c1nc2ccccc2[nH]1 (stereo not drawn) [Lansoprazole],0.0781
3,Cn1c(=O)c2c(ncn2C)n(C)c1=O [Caffeine],0.06
4,CC(C)(C)NCC(O)c1ccc(O)c(CO)c1 (stereo not drawn) [Salbutamol],0.0612
5,O=C(O[C@@H]1C[C@@H]2C[C@H]3C[C@H](C1)N2CC3=O)c1c[nH]c2ccccc12 [Dolasetron mesilate],-0.0407
6,COC(=O)Nc1nc2cc(C(=O)c3ccc(F)cc3)ccc2[nH]1 [Flubendazol],0.0179
7,O=C(NCC1CCCCN1)c1cc(OCC(F)(F)F)ccc1OCC(F)(F)F (stereo not drawn) [Flecainide acetate],-0.165
8,CC1CCc2cc(F)cc3c(=O)c(C(=O)O)cn1c23 (stereo not drawn) [Flumequine],0.154
9,CCCCOc1ccc(OCCCN2CCOCC2)cc1 [Pramoxine hydrochloride],0.159
10,COc1ccccc1OCCNCC(O)COc1cccc2[nH]c3ccccc3c12 (stereo not drawn) [Carvedilol],-0.275
11,COc1cc(N)c(Cl)cc1C(=O)NC1CCN(Cc2ccccc2)CC1 [Clebopride maleate],0.156
12,CCN1CCCC1CNC(=O)c1cc(S(=O)(=O)CC)c(N)cc1OC (stereo not drawn) [Amisulpride],-0.0437
13,Nc1nc(N)nc(-c2cc(Cl)ccc2Cl)n1 [Irsogladine maleate],0.111
14,CC(CN1c2ccccc2Sc2ccccc21)N(C)C (stereo not drawn) [Promethazine hydrochloride],0.166
15,NS(=O)(=O)c1cc2c(cc1C(F)(F)F)NC(Cc1ccccc1)NS2(=O)=O (stereo not drawn) [Bendroflumethiazide],0.0647
16,O=C(c1ccc(OCCN2CCCCC2)cc1)c1c(-c2ccc(O)cc2)sc2cc(O)ccc12 [Raloxifene hydrochloride],0.206
17,CCn1cc(C(=O)O)c(=O)c2cc(F)c(N3CCNCC3)cc21 [Norfloxacin],0.0655
18,CCOC(=O)C1=C(C)NC(C)=C(C(=O)OC)C1c1cccc([N+](=O)[O-])c1 (stereo not drawn) [Nitrendipine],0.127
19,CC1=C(C(=O)O)N2C(=O)[C@@H](NC(=O)[C@H](N)c3ccc(O)cc3)[C@H]2SC1 [Cefadroxil],0.0344
20,C=CCN1CCCC1CNC(=O)c1cc2nn[nH]c2cc1OC (stereo not drawn) [Alizapride HCl],-0.243
21,CC(C)(Oc1ccc(C2CC2(Cl)Cl)cc1)C(=O)O (stereo not drawn) [Ciprofibrate],0.104
22,C=C(NC(=O)C(=C)NC(=O)c1csc(C2=N[C@@H]3c4csc(n4)[C@H]4NC(=O)c5csc(n5)[C@H]([C@](C)(O)[C@@H](C)O)NC(=O)[C@H]5CSC(=N5)/C(=C/C)NC(=O)[C@H]([C@@H](C)O)NC(=O)c5csc(n5)[C@]3(CC2)NC(=O)[C@H](C)NC(=O)C(=C)NC(=O)[C@H](C)NC(=O)[C@H]([C@@H](C)CC)N[C@@H]2C=Cc3c([C@H](C)O)cc(nc3[C@H]2O)C(=O)O[C@@H]4C)n1)C(N)=O [Thiostrepton],-1.34
23,CC(=C(CCO)SSCC1CCCO1)N(C=O)Cc1cnc(C)nc1N (stereo in doubt) [Fursultiamine Hydrochloride],0.0713
24,CCC(C)(CN(C)C)OC(=O)c1ccccc1 (stereo not drawn) [Amyleine hydrochloride],0.104

# Reformatted as tab-separated lines: part of the list above.
row	SMILES	log
1	O=C(O)CNC(=O)C(CS)Cc1ccccc1 (stereo not drawn) [Thiorphan]	-0.0382
2	Cc1c(OCC(F)(F)F)ccnc1C[S+]([O-])c1nc2ccccc2[nH]1 (stereo not drawn) [Lansoprazole]	0.0781

# Next records

row,SMILES,log
1,NC(=O)c1cccnc1 [Nicotinamide],-0.0547
2,Cn1c(=O)c2c(ncn2CC(O)CO)n(C)c1=O (stereo not drawn) [Diprophylline],0.104
3,CNC1(C)C2CCC(C2)C1(C)C (stereo not drawn) [Mecamylamine hydrochloride],0.0496
4,CC[C@]12CCCN3CCc4c(n(c5ccccc45)[C@@](O)(C(=O)OC)C1)[C@@H]32 [Vincamine],-1.15
5,Nc1ccc(S(N)(=O)=O)cc1 [Sulfanilamide],-0.196
6,CC(CCc1ccc(O)cc1)NCCc1ccc(O)c(O)c1 (stereo not drawn) [Dobutamine hydrochloride],-0.447
7,CCSc1ccc2c(c1)N(CCCN1CCN(C)CC1)c1ccccc1S2 [Thiethylperazine dimalate],-0.0878
8,CN(C)CCC(c1ccccc1)c1ccccn1 (stereo not drawn) [Pheniramine maleate],0.126
9,NC[C@H]1CC[C@H](C(=O)O)CC1 [Tranexamic acid],0.0511
10,C=CCc1ccccc1OCC(O)CNC(C)C (stereo not drawn) [Alprenolol hydrochloride],0.0503
11,CCCCOc1ccc(CC(=O)NO)cc1 [Bufexamac],-0.114
12,CC(=O)OC(C)C[N+](C)(C)C (stereo not drawn) [Methacholine chloride],0.0667
13,O=C(O)c1cc(=O)c2c(OCC(O)COc3cccc4oc(C(=O)O)cc(=O)c34)cccc2o1 [Cromolyn disodium salt],-0.203
14,Clc1ccccc1C(c1ccccc1)(c1ccccc1)n1ccnc1 [Clotrimazole],0.0713
15,Clc1ccc(COC(Cn2ccnc2)c2ccc(Cl)cc2Cl)cc1 (stereo not drawn) [Econazole nitrate],0.0262
16,C=CC[N@@+]12CC[C@@]34c5ccccc5N5/C=C6/[C@H]7C[C@H]8[C@@]9(CC[N@@+]8(CC=C)C/C7=C/CO)c7ccccc7N(/C=C(/[C@@H](C[C@@H]31)/C(=C\CO)C2)[C@H]54)[C@@H]69 [Alcuronium chloride],0.02
17,CCCC(C(=O)OCCN(CC)CC)(c1ccccc1)c1ccccc1 [Proadifen hydrochloride],-0.0145
18,CCN(CC)C(=O)N1CCN(C)CC1 [Diethylcarbamazine citrate],0.0619
19,CCN(CCCc1ccccc1)CCCc1ccccc1 [Alverine citrate salt],-0.00693
20,CNCC[C@@H](Oc1ccccc1C)c1ccccc1 [Tomoxetine hydrochloride],-0.0293
21,O=C(CCCCC(=O)Nc1c(I)cc(I)c(C(=O)O)c1I)Nc1c(I)cc(I)c(C(=O)O)c1I [Iodipamide],0.0914
22,COCCCOc1ccnc(C[S+]([O-])c2nc3ccccc3[nH]2)c1C (stereo not drawn) [Rabeprazole Sodium salt],-0.0837
23,"O=C(O)Cc1cc(I)c(Oc2ccc(O)c(I)c2)c(I)c1 [Tiratricol, 3,3',5-triiodothyroacetic acid]",0.111
24,CCCCOC(=O)c1ccc(O)cc1 [Butylparaben],0.139

# 2 compounds picked at random from the list so far:
row,SMILES,log
21,O=C(CCCCC(=O)Nc1c(I)cc(I)c(C(=O)O)c1I)Nc1c(I)cc(I)c(C(=O)O)c1I [Iodipamide],0.0914
15,Clc1ccc(COC(Cn2ccnc2)c2ccc(Cl)cc2Cl)cc1 (stereo not drawn) [Econazole nitrate],0.0262
